Data reported in the supplement of paper PMC10849652.
This is one part of the list.

Sequences of proteins named here, by UniProt entry; tags and fusion partners are left off. A change or cut given only in a name is not applied to a line headed by its entry.
UniProt Q9BSJ8: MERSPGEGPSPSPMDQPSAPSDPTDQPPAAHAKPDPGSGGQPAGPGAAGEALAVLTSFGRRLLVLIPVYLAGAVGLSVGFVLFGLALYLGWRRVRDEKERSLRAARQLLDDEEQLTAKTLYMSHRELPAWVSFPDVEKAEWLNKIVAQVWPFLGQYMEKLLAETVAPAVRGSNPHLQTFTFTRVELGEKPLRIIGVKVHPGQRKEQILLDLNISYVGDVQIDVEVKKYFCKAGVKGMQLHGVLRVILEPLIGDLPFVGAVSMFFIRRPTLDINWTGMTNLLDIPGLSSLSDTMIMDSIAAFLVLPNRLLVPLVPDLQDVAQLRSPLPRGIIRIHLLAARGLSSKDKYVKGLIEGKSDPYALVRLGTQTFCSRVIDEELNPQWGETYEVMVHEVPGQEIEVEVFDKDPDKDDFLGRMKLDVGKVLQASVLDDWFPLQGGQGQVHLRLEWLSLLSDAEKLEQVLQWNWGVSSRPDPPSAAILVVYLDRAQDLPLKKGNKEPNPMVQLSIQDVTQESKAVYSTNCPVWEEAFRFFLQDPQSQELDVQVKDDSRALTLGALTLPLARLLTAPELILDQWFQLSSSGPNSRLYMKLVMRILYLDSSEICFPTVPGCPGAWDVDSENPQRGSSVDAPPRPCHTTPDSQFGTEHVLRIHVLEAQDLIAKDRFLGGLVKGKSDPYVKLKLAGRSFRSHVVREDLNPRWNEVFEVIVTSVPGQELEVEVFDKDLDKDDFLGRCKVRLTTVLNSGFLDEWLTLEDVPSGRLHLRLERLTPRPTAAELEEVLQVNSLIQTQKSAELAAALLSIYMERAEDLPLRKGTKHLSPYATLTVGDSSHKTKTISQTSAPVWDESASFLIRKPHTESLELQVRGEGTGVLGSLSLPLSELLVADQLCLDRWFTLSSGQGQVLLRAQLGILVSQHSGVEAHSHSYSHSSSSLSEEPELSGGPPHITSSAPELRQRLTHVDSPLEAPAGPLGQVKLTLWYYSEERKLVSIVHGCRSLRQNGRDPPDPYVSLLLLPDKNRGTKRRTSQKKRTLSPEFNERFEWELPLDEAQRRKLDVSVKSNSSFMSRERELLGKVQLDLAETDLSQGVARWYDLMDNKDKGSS
UniProt Q96GK7: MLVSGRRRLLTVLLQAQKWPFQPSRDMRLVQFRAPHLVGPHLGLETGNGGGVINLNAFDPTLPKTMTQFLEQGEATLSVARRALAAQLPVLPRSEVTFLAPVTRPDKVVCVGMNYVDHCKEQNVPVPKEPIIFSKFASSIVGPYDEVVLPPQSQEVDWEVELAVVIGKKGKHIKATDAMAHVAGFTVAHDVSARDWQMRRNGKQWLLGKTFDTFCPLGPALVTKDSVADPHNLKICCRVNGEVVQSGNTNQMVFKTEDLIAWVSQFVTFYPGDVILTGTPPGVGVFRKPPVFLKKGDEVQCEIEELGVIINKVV
UniProt Q8IYI6: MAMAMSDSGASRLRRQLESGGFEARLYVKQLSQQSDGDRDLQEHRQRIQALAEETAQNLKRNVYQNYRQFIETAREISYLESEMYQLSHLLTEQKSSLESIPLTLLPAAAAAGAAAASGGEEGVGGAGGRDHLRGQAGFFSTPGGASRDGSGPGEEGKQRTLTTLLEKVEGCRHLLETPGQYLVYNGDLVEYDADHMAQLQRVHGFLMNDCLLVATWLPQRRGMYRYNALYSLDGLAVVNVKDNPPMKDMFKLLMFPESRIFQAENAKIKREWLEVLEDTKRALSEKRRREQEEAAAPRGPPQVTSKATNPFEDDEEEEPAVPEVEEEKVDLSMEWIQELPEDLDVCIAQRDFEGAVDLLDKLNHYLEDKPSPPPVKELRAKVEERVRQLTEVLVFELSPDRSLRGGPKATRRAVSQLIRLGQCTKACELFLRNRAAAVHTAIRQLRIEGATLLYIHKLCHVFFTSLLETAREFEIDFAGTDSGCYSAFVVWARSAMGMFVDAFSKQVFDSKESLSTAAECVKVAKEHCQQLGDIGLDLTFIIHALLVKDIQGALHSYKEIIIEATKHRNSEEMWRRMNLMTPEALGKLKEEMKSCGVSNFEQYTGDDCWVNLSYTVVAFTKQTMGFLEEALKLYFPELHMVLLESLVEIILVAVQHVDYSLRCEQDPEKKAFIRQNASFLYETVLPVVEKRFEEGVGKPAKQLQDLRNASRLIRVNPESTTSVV
UniProt Q5W0V3: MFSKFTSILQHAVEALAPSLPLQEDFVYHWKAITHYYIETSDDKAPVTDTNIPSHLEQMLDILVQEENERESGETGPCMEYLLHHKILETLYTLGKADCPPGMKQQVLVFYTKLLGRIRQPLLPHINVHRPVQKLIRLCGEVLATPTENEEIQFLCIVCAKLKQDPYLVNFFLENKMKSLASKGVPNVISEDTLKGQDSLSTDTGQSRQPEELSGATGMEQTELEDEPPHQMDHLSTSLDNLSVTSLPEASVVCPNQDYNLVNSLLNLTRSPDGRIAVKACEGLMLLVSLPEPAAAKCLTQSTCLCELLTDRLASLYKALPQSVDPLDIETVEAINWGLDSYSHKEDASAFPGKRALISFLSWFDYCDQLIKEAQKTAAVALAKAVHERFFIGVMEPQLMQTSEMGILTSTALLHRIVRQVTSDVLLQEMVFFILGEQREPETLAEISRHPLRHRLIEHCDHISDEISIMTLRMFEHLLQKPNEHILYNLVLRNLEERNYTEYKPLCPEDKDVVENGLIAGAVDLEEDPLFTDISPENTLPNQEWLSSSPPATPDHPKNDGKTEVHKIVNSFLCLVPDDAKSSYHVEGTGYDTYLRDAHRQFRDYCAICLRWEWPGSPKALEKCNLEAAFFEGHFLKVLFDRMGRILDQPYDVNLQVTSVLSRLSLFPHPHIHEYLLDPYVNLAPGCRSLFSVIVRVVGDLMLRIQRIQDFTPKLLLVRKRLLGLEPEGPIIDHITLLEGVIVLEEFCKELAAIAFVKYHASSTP
UniProt Q15024, whole entry, looked up: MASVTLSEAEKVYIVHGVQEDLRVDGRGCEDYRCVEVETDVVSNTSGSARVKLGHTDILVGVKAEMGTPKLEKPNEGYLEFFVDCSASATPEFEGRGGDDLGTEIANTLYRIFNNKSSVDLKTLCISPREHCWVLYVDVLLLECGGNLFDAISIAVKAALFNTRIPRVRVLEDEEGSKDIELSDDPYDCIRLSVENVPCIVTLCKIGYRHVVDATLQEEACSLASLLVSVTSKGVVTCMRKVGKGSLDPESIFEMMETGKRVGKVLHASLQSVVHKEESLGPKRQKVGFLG
UniProt Q96A65: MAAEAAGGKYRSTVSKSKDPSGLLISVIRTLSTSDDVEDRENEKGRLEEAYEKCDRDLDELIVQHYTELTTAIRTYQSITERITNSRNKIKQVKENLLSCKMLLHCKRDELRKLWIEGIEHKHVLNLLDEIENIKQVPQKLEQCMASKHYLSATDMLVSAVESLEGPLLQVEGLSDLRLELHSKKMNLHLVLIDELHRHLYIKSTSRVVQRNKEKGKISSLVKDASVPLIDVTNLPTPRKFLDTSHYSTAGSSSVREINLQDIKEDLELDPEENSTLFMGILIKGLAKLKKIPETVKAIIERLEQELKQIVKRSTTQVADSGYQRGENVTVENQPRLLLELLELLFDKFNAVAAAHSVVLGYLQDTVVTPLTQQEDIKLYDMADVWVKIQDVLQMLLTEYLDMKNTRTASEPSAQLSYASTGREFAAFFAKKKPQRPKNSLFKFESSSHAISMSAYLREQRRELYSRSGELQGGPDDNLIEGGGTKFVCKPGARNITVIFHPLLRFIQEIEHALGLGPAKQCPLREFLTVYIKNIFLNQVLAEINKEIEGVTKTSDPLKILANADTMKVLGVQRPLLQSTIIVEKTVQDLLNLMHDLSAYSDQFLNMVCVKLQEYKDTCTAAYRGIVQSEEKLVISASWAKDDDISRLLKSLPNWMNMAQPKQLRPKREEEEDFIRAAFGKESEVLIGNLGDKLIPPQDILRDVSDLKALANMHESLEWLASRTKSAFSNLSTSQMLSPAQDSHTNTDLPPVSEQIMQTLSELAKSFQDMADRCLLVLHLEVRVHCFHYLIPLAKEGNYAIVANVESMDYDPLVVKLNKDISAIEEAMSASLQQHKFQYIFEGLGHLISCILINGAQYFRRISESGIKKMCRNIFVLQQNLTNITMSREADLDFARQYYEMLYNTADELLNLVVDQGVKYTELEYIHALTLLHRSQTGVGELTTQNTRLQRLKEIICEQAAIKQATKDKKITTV
UniProt Q86UY5: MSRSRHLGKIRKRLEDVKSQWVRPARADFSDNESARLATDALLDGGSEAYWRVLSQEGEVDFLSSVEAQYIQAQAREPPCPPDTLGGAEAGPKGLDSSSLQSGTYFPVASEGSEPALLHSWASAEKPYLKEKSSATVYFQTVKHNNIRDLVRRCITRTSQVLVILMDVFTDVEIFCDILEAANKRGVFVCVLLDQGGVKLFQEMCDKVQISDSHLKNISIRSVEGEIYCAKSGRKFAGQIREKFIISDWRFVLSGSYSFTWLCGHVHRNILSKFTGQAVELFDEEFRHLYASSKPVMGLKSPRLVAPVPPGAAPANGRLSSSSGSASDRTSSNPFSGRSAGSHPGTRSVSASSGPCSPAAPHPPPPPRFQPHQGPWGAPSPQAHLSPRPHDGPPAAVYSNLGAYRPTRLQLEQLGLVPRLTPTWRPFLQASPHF
UniProt Q96EK7: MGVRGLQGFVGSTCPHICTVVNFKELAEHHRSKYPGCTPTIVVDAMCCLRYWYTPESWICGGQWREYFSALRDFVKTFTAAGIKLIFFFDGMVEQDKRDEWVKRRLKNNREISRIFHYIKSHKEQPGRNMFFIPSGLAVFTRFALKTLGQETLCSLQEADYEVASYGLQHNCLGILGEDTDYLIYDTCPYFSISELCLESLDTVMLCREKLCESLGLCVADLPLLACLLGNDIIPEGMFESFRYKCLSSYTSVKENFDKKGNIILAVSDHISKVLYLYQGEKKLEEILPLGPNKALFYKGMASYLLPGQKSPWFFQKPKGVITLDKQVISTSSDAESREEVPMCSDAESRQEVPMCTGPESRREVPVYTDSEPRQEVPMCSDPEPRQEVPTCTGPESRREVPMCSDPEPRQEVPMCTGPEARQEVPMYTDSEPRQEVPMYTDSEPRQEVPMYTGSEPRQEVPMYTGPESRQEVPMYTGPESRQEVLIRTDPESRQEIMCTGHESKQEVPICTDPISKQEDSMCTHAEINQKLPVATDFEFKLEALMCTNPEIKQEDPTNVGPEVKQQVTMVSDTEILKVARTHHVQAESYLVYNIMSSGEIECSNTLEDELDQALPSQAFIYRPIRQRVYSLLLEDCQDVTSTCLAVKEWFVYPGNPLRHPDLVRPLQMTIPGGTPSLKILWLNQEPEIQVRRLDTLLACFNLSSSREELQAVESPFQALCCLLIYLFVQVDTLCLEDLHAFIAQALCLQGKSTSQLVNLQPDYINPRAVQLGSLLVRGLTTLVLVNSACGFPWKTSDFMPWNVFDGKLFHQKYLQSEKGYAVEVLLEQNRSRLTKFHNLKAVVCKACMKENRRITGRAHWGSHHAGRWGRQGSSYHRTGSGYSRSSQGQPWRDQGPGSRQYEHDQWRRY
UniProt Q16134: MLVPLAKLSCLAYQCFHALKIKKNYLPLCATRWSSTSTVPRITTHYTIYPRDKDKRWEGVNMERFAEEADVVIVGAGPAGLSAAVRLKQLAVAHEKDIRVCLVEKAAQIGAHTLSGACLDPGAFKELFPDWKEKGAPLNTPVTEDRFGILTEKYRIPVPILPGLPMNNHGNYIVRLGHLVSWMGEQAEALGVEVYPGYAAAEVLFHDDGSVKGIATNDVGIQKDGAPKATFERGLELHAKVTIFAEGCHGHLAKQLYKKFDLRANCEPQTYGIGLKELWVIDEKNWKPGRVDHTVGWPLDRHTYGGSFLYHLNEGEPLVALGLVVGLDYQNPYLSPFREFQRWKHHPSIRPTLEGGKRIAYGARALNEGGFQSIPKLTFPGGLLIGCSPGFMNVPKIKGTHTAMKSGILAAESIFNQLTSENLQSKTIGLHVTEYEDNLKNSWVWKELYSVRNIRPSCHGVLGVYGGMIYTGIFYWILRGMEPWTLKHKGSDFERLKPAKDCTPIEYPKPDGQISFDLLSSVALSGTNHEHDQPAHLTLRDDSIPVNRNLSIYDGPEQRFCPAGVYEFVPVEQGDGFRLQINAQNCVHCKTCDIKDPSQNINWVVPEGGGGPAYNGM
UniProt Q9BS26: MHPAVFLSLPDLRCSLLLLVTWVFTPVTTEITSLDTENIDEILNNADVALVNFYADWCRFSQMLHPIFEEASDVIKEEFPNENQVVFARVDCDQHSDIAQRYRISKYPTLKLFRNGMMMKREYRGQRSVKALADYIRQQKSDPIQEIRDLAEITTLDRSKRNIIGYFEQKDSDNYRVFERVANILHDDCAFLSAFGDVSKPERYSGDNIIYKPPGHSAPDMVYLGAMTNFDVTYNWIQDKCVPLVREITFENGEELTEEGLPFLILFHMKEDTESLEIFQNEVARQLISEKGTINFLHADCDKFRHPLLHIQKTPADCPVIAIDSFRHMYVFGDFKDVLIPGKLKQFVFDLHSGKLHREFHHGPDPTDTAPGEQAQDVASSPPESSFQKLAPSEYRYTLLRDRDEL

What was measured:
Test in all cases: log2 fold change, soluble protein after heating vs DMSO (PISA); higher = thermal stabilisation; K562 lysate, 10 uM; active = over 0.2 and 3.5 SD of the protein, either way, in both replicates (recomputed)
[1] = compound: CS(=O)(=O)CCNCc1ccc(-c2ccc3ncnc(Nc4ccc(OCc5cccc(F)c5)c(Cl)c4)c3c2)o1 [lapatinib]
How it was run: (§1)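 To prepare the extract, K562 pellets were dounce-homogenised in PBS pH 7.4 with 1 mM MgCl2, giving crude material at 1 mg/mL protein. This was treated with 10 μM compound for 30 min, then heated in aliquots for 3 min over 48°C-58°C before pooling and addition of NP-40 to 0.5% at 4°C. Centrifugation at 21,000xg for 90 min left soluble protein in the supernatant, which TMTpro 16plex LC-MS/MS quantified with equalised channel sums. Results are log-two fold changes in thermal stability compared with solvent controls, from duplicates.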

[2] = compound: CS(=O)(=O)N1CCN(Cc2cc3nc(-c4cccc5[nH]ncc45)nc(N4CCOCC4)c3s2)CC1 [pictilisib]
How it was run: as §1

[3] = compound: C[C@@H](Oc1cc(-c2cnn(C3CCNCC3)c2)cnc1N)c1c(Cl)ccc(F)c1Cl [crizotinib]
How it was run: as §1

[4] = compound: C[C@H](C1=CC=C(C=C1)C(=O)NC2=C3C=CNC3=NC=C2)N
How it was run: as §1

[5] = compound: C[C@H](Nc1ncnc2nc[nH]c12)c1cc2cccc(Cl)c2c(=O)n1-c1ccccc1 [duvelisib]
How it was run: as §1

[6] = compound: Cc1cc(Nc2cc(CN3CCOCC3)c3nc(C)c(Cc4ccc(Cl)cc4F)n3n2)n[nH]1 [gandotinib]
How it was run: as §1

[7] = compound: Cc1cc(Nc2cc(N3CCN(C)CC3)nc(Sc3ccc(NC(=O)C4CC4)cc3)n2)n[nH]1 [tozasertib]
How it was run: as §1

[8] = compound: Cc1ccc(-n2nc(C(C)(C)C)cc2NC(=O)Nc2ccc(OCCN3CCOCC3)c3ccccc23)cc1 [doramapimod]
How it was run: as §1

[9] = compound: Cc1ccc(NC(=O)c2ccc(CN3CC[C@H](N(C)C)C3)c(C(F)(F)F)c2)cc1Nc1nccc(-c2cncnc2)n1 [bafetinib]
How it was run: as §1

[10] = compound: Cc1cccc(CC(=O)N2CCc3c2ccc(-c2cn(C)c4ncnc(N)c24)c3F)n1
How it was run: as §1

[11] = compound: Cc1cn(-c2cc(NC(=O)c3ccc(C)c(Nc4nccc(-c5cccnc5)n4)c3)cc(C(F)(F)F)c2)cn1 [nilotinib]
How it was run: as §1

[12] = compound: Cc1nc(Nc2n[nH]c3c2CN(C(=O)N[C@H](CN(C)C)c2ccccc2)C3(C)C)c2sccc2n1
How it was run: as §1

[13] = compound: Cc1nc(Nc2ncc(C(=O)Nc3c(C)cccc3Cl)s2)cc(N2CCN(CCO)CC2)n1 [dasatinib]
How it was run: as §1

[14] = compound: Cc1ncc(-c2ccnc(Nc3ccc(S(C)(=O)=O)cc3)n2)n1C(C)C
How it was run: as §1

[15] = compound: Cn1cc(-c2ccc3c(c2)CCN3C(=O)Cc2cccc(C(F)(F)F)c2)c2c(N)ncnc21
How it was run: as §1

[16] = compound: Cn1cc(CNCC2CCN(c3ncc(C(=O)NO)cn3)CC2)c2ccccc21 [quisinostat]
How it was run: as §1

[17] = compound: Cn1cncc1[C@@](N)(c1ccc(Cl)cc1)c1ccc2c(c1)c(-c1cccc(Cl)c1)cc(=O)n2C [tipifarnib]
How it was run: as §1

[18] = compound: NC(=O)Nc1cc(-c2cccc(F)c2)sc1C(=O)N[C@H]1CCCNC1
How it was run: as §1

[19] = compound: NC(=O)c1cnc(N[C@@H]2CCCC[C@@H]2N)nc1Nc1cccc(-n2nccn2)c1
How it was run: as §1

[20] = compound: NC1(c2ccc(-c3nc4ccn5c(=O)[nH]nc5c4cc3-c3ccccc3)cc2)CCC1
How it was run: as §1

Measured: log2 fold change

FAH isoform 2 (UniProt P16930)
inactive: [1] -0.211 | [2] -0.036 | [3] -0.267 | [4] -0.469 | [5] -0.144 | [6] 0.215 | [7] 0.036 | [8] 0.208 | [9] -0.248 | [10] 0.325 | [11] -0.031 | [12] 0.024 | [13] 0.127 | [14] -0.03 | [15] -0.062 | [16] -0.078 | [17] 0.018 | [18] -0.181 | [19] -0.084

ESYT1 isoform 2 (UniProt Q9BSJ8)
inactive: [1] -0.002 | [2] -0.019 | [3] 0.023 | [4] -0.042 | [5] -0.023 | [6] 0.004 | [7] 0.016 | [8] 0.009 | [9] -0.017 | [10] 0.037 | [11] 0.005 | [12] -0.024 | [13] 0.018 | [14] -0.035 | [15] 0.04 | [16] 0.079 | [17] 0.031 | [18] -0.046 | [19] 0 | [20] 0.023

FAHD2A (UniProt Q96GK7)
inactive: [1] -0.013 | [2] -0.003 | [3] 0.013 | [4] -0.044 | [5] -0.03 | [6] 0.041 | [7] -0.007 | [8] 0.014 | [9] -0.003 | [10] 0.004 | [11] 0.001 | [12] -0.038 | [13] 0.023 | [14] 0.005 | [15] -0.045 | [16] -0.001 | [17] -0.006 | [18] -0.016 | [19] 0.017 | [20] -0.033

FAM122A (UniProt Q96E09)
inactive: [1] 0.045 | [2] -0.027 | [3] -0.006 | [4] -0.013 | [5] 0.019 | [6] 0.05 | [7] -0.005 | [8] 0.027 | [9] 0.013 | [10] -0.041 | [11] -0.034 | [12] -0.017 | [13] 0.003 | [14] -0.06 | [15] -0.066 | [16] -0.032 | [17] 0 | [18] 0.011 | [19] -0.004 | [20] -0.013

2 entries drawn at random from the list so far:
ESYT1 isoform 2 (UniProt Q9BSJ8)
inactive: [1] -0.002 | [2] -0.019 | [3] 0.023 | [4] -0.042 | [5] -0.023 | [6] 0.004 | [7] 0.016 | [8] 0.009 | [9] -0.017 | [10] 0.037 | [11] 0.005 | [12] -0.024 | [13] 0.018 | [14] -0.035 | [15] 0.04 | [16] 0.079 | [17] 0.031 | [18] -0.046 | [19] 0 | [20] 0.023

FAH isoform 2 (UniProt P16930)
inactive: [1] -0.211 | [2] -0.036 | [3] -0.267 | [4] -0.469 | [5] -0.144 | [6] 0.215 | [7] 0.036 | [8] 0.208 | [9] -0.248 | [10] 0.325 | [11] -0.031 | [12] 0.024 | [13] 0.127 | [14] -0.03 | [15] -0.062 | [16] -0.078 | [17] 0.018 | [18] -0.181 | [19] -0.084

(further entries)

ESS2 (UniProt Q96DF8)
inactive: [1] 0.036 | [2] 0.017 | [3] 0.055 | [4] -0.04 | [5] -0.066 | [6] 0.159 | [7] -0.006 | [8] 0.112 | [9] -0.008 | [10] 0.012 | [11] 0.02 | [12] -0.003 | [13] 0.061 | [14] -0.026 | [15] 0.013 | [16] -0.098 | [17] -0.082 | [18] 0.006 | [19] 0.003 | [20] -0.018

EXOC8 (UniProt Q8IYI6)
inactive: [1] -0.006 | [2] -0.034 | [3] -0.047 | [4] -0.008 | [5] -0.039 | [6] -0.134 | [7] -0.041 | [8] 0.002 | [9] -0.056 | [10] -0.008 | [11] 0.015 | [12] -0.017 | [13] -0.044 | [14] -0.011 | [15] -0.007 | [16] 0.021 | [17] -0.014 | [18] 0.025 | [19] 0.023 | [20] -0.048

FAM160B1 (UniProt Q5W0V3)
inactive: [1] 0.02 | [2] -0.06 | [3] -0.069 | [4] -0.037 | [5] -0.012 | [6] 0.075 | [7] -0.026 | [8] 0.04 | [9] -0.013 | [10] 0.017 | [11] 0.022 | [12] 0.009 | [13] -0.023 | [14] -0.006 | [15] 0.031 | [16] -0.096 | [17] 0.006 | [18] 0.001 | [19] -0.003 | [20] -0.034

FAM3C (UniProt Q92520)
inactive: [1] 0.025 | [2] -0.01 | [3] -0.052 | [4] 0.012 | [5] -0.026 | [6] 0.025 | [7] -0.047 | [8] -0.066 | [9] 0.014 | [10] 0.017 | [11] 0.034 | [12] -0.023 | [13] -0.055 | [14] -0.02 | [15] -0.03 | [16] 0.039 | [17] -0.087 | [18] -0.044 | [19] 0.011 | [20] -0.024

EXOSC7 (UniProt Q15024)
inactive: [1] -0.022 | [2] 0.003 | [3] -0.011 | [4] -0.149 | [5] 0.072 | [6] 0.07 | [7] 0.018 | [8] 0.023 | [9] -0.057 | [10] 0.055 | [11] 0.028 | [12] -0.007 | [13] -0.021 | [14] 0.011 | [15] 0.016 | [16] 0.014 | [17] -0.023 | [18] 0.01 | [19] 0.008 | [20] -0.002

EXOC4 (UniProt Q96A65)
inactive: [1] -0.038 | [2] 0.018 | [3] -0.044 | [4] 0.011 | [5] 0.024 | [6] -0.165 | [7] -0.028 | [8] -0.023 | [9] -0.056 | [10] 0.015 | [11] 0.015 | [12] -0.012 | [13] -0.083 | [14] 0.015 | [15] 0.072 | [16] -0.009 | [17] -0.036 | [18] 0.053 | [19] 0.013 | [20] -0.068

FAM83A (UniProt Q86UY5)
inactive: [1] 0.012 | [2] 0.021 | [3] 0.086 | [4] -0.142 | [5] -0.047 | [6] 0.155 | [7] -0.013 | [8] 0.195 | [9] -0.053 | [10] 0.056 | [11] -0.007 | [12] -0.069 | [13] -0.028 | [14] -0.016 | [15] -0.033 | [16] -0.088 | [17] -0.08 | [18] 0.034 | [19] 0.004 | [20] -0.019

FAM120B (UniProt Q96EK7)
inactive: [1] 0.041 | [2] -0.012 | [3] -0.021 | [4] -0.018 | [5] -0.021 | [6] -0.051 | [7] -0.064 | [8] 0.021 | [9] -0.045 | [10] 0.045 | [11] -0.067 | [12] -0.017 | [13] -0.033 | [14] -0.008 | [15] 0.017 | [16] -0.062 | [17] 0.05 | [18] 0.015 | [19] -0.029 | [20] -0.048

ETFDH (UniProt Q16134)
inactive: [1] -0.03 | [2] -0.024 | [3] 0.015 | [4] 0.009 | [5] -0.057 | [6] -0.005 | [7] 0.039 | [8] 0.035 | [9] 0.023 | [10] 0.021 | [11] -0.011 | [12] -0.004 | [13] -0.017 | [14] 0.026 | [15] -0.006 | [16] 0.032 | [17] 0.022 | [18] -0.003 | [19] 0.021 | [20] -0.008

ERVK3-1, A0A0U1RQV1
inactive: [1] 0.007 | [2] -0.015 | [3] -0.041 | [4] -0.23 | [5] -0.012 | [6] 0.152 | [7] -0.097 | [8] 0.022 | [9] 0.03 | [10] 0.097 | [11] 0.02 | [12] 0.006 | [13] -0.068 | [14] -0.028 | [15] -0.096 | [16] -0.088 | [17] 0.002 | [18] 0.005 | [19] -0.019 | [20] -0.049

ERO1B (UniProt Q86YB8)
inactive: [1] -0.041 | [2] -0.077 | [3] 0.007 | [4] -0.098 | [5] 0.061 | [6] 0.053 | [7] -0.034 | [8] -0.016 | [9] -0.027 | [10] -0.121 | [11] -0.2 | [12] -0.058 | [13] 0.026 | [14] 0.209 | [15] 0.013 | [16] -0.068 | [17] 0.072 | [18] 0.017 | [19] 0.061 | [20] 0.003

ERP44 (UniProt Q9BS26)
inactive: [1] 0.009 | [2] -0.002 | [3] -0.003 | [4] -0.043 | [5] 0.021 | [6] 0.046 | [7] -0.052 | [8] 0.02 | [9] -0.026 | [10] 0.042 | [11] 0.027 | [12] -0.008 | [13] 0.002 | [14] -0.019 | [15] -0.003 | [16] -0.032 | [17] -0.022 | [18] -0.013 | [19] 0.006 | [20] 0.005
